Results as given in article PMC6604152.
No constants are given. Whether binding was seen depends on the method and setting. Binding seen in cells or lysates may run through a third protein. Some results given as binding are weak or reduced against the parent protein; the word gives no strength.

Amino acid sequences for entries named in this document (tags omitted). Residues count along the entry.
UniProt P35968, residues 20-1356: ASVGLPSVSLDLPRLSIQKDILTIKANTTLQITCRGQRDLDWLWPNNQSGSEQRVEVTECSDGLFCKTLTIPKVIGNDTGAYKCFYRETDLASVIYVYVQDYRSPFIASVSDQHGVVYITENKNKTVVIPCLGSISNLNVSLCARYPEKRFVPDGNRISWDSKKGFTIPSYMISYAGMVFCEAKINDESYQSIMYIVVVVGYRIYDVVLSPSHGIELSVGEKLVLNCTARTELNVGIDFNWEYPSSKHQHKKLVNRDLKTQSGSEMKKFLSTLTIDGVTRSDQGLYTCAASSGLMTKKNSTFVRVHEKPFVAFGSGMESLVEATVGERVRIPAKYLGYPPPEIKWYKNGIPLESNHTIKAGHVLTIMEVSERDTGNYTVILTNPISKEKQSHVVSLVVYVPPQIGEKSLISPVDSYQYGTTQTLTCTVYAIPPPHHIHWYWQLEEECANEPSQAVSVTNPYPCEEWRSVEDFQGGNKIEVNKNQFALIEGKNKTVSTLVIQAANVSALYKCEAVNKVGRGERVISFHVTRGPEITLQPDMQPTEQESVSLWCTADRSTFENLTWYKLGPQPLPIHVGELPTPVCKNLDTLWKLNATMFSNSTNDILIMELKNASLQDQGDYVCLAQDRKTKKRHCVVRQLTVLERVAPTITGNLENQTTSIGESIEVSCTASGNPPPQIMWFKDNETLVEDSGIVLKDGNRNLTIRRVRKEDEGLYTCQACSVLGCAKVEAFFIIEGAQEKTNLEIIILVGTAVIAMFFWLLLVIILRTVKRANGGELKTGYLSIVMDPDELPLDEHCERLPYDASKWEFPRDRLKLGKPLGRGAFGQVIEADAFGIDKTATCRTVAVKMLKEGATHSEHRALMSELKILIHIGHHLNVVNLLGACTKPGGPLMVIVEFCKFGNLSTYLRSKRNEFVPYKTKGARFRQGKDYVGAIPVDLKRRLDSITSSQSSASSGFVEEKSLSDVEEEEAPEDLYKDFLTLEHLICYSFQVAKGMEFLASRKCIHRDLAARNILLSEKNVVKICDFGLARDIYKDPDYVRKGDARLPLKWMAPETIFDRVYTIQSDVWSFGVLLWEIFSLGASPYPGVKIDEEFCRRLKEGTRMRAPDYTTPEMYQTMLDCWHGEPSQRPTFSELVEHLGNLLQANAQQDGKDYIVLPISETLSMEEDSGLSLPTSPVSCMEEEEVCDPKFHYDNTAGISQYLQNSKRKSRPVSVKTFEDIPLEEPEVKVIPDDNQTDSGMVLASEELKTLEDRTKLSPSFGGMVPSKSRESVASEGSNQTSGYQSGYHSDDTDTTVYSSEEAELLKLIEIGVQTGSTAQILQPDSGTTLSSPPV

Key:
[1] = target: VEGFR2 (human (endogenous in HUVEC)) (UniProt P35968); assay: co-IP; HUVEC lysates in TBS-Nonidet P-40 lysis buffer (20 mM Tris pH 7.4, 150 mM NaCl, 1% NP-40), specific antibodies 12 h at 4 °C, protein G magnetic beads, blots; reciprocal; cells treated with VEGFa, VEGFa/6G, anti-VEGFA antibody, sorafenib, Ki8751 or siRNAs against VEGFR2, VE-cad, β-catenin
[2] = target: T1, VE-cadherin (human (endogenous in HUVEC)), P33151; assay: as above; conditions: remark: other sources report otherwise
T1 chain: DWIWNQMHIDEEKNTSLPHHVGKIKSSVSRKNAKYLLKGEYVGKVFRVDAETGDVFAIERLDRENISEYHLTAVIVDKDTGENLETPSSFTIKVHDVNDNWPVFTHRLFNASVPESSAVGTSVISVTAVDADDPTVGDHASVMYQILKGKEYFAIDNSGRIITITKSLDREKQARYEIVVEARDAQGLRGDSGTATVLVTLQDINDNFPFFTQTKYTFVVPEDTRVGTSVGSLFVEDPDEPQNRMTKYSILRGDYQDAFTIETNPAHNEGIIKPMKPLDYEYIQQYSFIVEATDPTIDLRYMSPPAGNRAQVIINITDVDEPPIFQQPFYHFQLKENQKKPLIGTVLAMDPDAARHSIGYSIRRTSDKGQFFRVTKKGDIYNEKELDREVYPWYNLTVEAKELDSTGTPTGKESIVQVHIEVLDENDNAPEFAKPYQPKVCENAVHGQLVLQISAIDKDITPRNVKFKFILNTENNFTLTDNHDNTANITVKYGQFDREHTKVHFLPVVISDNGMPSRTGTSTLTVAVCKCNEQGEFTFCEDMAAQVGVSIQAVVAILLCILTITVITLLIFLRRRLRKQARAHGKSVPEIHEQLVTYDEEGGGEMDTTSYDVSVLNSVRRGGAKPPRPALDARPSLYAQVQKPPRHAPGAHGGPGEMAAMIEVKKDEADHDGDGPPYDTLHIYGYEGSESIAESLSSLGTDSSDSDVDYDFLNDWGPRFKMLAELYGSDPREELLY

Molecule: β-catenin (from UniProt P35222 1-781)
- binding [1]: binds

B1: β-catenin, P35222 1-781 (protein)
chain: MATQADLMELDMAMEPDRKAAVSHWQQQSYLDSGIHSGATTTAPSLSGKGNPEEEDVDTSQVLYEWEQGFSQSFTQEQVADIDGQYAMTRAQRVRAAMFPETLDEGMQIPSTQFDAAHPTNVQRLAEPSQMLKHAVVNLINYQDDAELATRAIPELTKLLNDEDQVVVNKAAVMVHQLSKKEASRHAIMRSPQMVSAIVRTMQNTNDVETARCTAGTLHNLSHHREGLLAIFKSGGIPALVKMLGSPVDSVLFYAITTLHNLLLHQEGAKMAVRLAGGLQKMVALLNKTNVKFLAITTDCLQILAYGNQESKLIILASGGPQALVNIMRTYTYEKLLWTTSRVLKVLSVCSSNKPAIVEAGGMQALGLHLTDPSQRLVQNCLWTLRNLSDAATKQEGMEGLLGTLVQLLGSDDINVVTCAAGILSNLTCNNYKNKMMVCQVGGIEALVRTVLRAGDREDITEPAICALRHLTSRHQEAEMAQNAVRLHYGLPVVVKLLHPPSHWPLIKATVGLIRNLALCPANHAPLREQGAIPRLVQLLVRAHQDTQRRTSMGGTQQQFVEGVRMEEIVEGCTGALHILARDVHNRIVIRGLNTIPLFVQLLYSPIENIQRVAAGVLCELAQDKEAAEAIEAEGATAPLTELLHSRNEGVATYAAAVLFRMSEDKPQDYKKRLSVELTSSLFRTEPMAWNETADLGLDIGAQGEPLGYRQDDPSYRSFHSGGYGQDALGMDPMMEHEMGGHHPGADYPVDGLPDLGHAQDLMDGLPPGDSNQLAWFDTDL
- binding [2]: binds
